Assay results reported in patent US20190125648A1, “COMPOSITION FOR PREVENTING, IMPROVING OR TREATING HAIR LOSS COMPRISING DEOXYCHOLIC ACID AS ACTIVE INGREDIENT” (priority 2016, published 2019).
For at least one compound, name, drawing or mass did not settle the structure.

System: B6CBAF1/j hybrid mice
Assay: Testosterone-induced hair loss in mice: hair loss area and follicle count
Type: in vivo
Settings: testosterone 10 mg/ml + test substance 1 mg/ml, compared to testosterone alone (group T)
Protocol: B6CBAF1/j hybrid mice (5 weeks old, male, Charles River Japan) were acclimated for one week in a breeding room and then used from the time of 6 weeks after birth.
For use in an injection agent, a solvent was prepared to contain 15% of ethanol, 5% of NMP, and 80% of PBS. Solutions were prepared by mixing the solvent with the following solutes: group T (testosterone 10 mg/ml), group TD (testosterone 10 mg/ml+deoxycholic acid 1 mg/ml), group TR (testosterone 10 mg/ml+resveratrol 1 mg/ml), group TF (testosterone 10 mg/ml+finasteride 1 mg/ml), and group TRF (testosterone 10 mg/ml+resveratrol 1 mg/ml+finasteride 1 mg/ml).
The animals were anesthetized with isoflurane through inhalation and injected subcutaneously at the neck with 100 μl of a testosterone solution (10 mg/ml) every day. From a couple of weeks, they were photographed along with a scale bar to quantify a hair loss area. After six weeks of testing, the mice were sacrificed by means of a CO2 incubator. Test areas of the skin were taken, fixed with formalin, and prepared into paraffin blocks. The blocks were horizontally sectioned and dyed with H&E (Hematoxylin & Eosin) to count follicles per mm^2.

C[C@H](CCC(=O)O)[C@H]1CC[C@H]2[C@@H]3CC[C@@H]4C[C@H](O)CC[C@]4(C)[C@H]3C[C@H](O)[C@]12C [deoxycholic acid]
proliferation and growth of follicular cells (counts of follicular cells) (after six weeks, H&E skin sections, FIG. 2): remarkable proliferation and growth | hair loss area (from week 3 after drug treatment, subcutaneous daily, FIG. 1): remarkably reduce
